# Measured values: patent publication US7153869B2, “Substituted amino acids as erythropoietin mimetics” (priority 1998, dated 2006)
# Part of at least one peptide drawing is inferred or uncertain, most often the ends. Bridge positions count the residues as written; N and C are the ends. Peptide text beside a SMILES is read from it.
# Target: T1, EBP-Ig (N-terminal 225 amino acids of the human EPO receptor joined to an Ig heavy chain) (Homo sapiens, UniProt P19235)
# T1 construct: Ig heavy chain (fusion partner); made in house; host or cells: NSO cells (secreted into conditioned media)
# T1 sequence (P19235 25-250 limits assumed): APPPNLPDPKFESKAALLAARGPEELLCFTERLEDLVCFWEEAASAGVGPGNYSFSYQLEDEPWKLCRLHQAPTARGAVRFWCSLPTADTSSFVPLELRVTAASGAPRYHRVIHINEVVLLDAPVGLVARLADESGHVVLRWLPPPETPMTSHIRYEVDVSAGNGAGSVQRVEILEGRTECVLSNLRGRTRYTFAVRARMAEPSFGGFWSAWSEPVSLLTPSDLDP
# Test: Inhibition of [125I]EPO binding to immobilized EBP-Ig (EPO binding protein-Ig), scintillation Flash plate competition assay
# Conditions: typical value; read-out: IC50 value for EMP1
# From the text: The interaction of biotin and streptavidin is frequently employed to capture and effectively immobilize reagents useful in assay protocols and has been employed here as a simple method to capture and immobilize EBP-Ig. EBP-Ig is initially randomly modified with an amine reactive derivative of biotin to produce biotinylated-EBP-Ig. Use of streptavidin coated plates allows the capture of the biotinylated EBP-Ig on the surface of a scintillant impregnated coated well (Flash plates, NEN-DuPont). […] The amount of light produced was quantified to estimate the amount of ligand binding. The specific assay format was suitable for the multi-well plate capacity of a Packard TopCount Microplate Scintillation counter.
# Biotinylated EBP-Ig was prepared as follows. EBP-Ig (3 mL, OD280 2.9) was exchanged into 50 mM sodium bicarbonate, pH 8.5 using a Centriprep 10 ultrafiltration device. […]
# All wells were adjusted to a final DMSO concentration of 5%. […] The next day all liquid was aspirated from the wells to limit analyte dependent quench of the signal, and the plates were counted on a Packard TOPCOUNT Microplate Scintillation Counter. […] Corrected total binding (CTB) was calculated as: TB−NSB=CTB. […] Table 1 lists the average % inhibition, and if determined the IC50 and IC30 values for compounds of Formula I, where the compound numbers refer to the compounds in the tables accompanying the preparative examples.
structure (smiles),measurement,value
"CC(C)C[C@@H]1NC(=O)[C@@H]2CCCN2C(=O)CNC(=O)[C@H](Cc2ccccc2)NC(=O)[C@H](Cc2c[nH]cn2)NC(=O)[C@@H](NC(=O)[C@H](CO)NC(=O)[C@H](Cc2ccc(O)cc2)NC(=O)[C@@H](NC(=O)CNC(=O)CN)[C@@H](C)O)CSSC[C@@H](C(=O)N[C@@H](CCCCN)C(=O)N2CCC[C@H]2C(=O)N[C@@H](CCC(N)=O)C(=O)NCC(=O)NCC(=O)O)NC(=O)[C@H](C(C)C)NC(=O)[C@H](Cc2c[nH]c3ccccc23)NC(=O)[C@H]([C@@H](C)O)NC1=O [EMP1, reference compound] (H-GGTYSCHFGPLTWVCKPQGG-OH; disulfide 6-15 (inferred); N-terminus and C-terminus assumed)",IC50,100 nM
